# Whole data set: some 1,900 compounds, median “excess over highest single agent (ExcessHSA) synergy score, 6x6 matrix” near -83, cut for the lowest 2% near -370. This is one part of the list.
# Tested on: NCI-H446
# Test: excess over highest single agent (ExcessHSA) synergy score, 6x6 matrix; higher = less synergy (more negative = stronger synergy)
# Details: 72 h; CellTiter-Glo viability
row,Structure (SMILES),excess over highest single agent
1,O=C(NCc1ccccc1)c1csc(Nc2ccncn2)n1 + Cc1sc2c(c1C)C(c1ccc(Cl)cc1)=N[C@@H](CC(=O)OC(C)(C)C)c1nnc(C)n1-2 [NCGC00250412-19],-205
2,C=CC(=O)Nc1cc2c(Nc3ccc(F)c(Cl)c3)ncnc2cc1OCCCN1CCOCC1 + Cc1sc2c(c1C)C(c1ccc(Cl)cc1)=N[C@@H](CC(=O)OC(C)(C)C)c1nnc(C)n1-2 [NCGC00250412-19],-120
3,CNC[C@H](O)c1ccc(O)c(O)c1 + Cc1sc2c(c1C)C(c1ccc(Cl)cc1)=N[C@@H](CC(=O)OC(C)(C)C)c1nnc(C)n1-2 [NCGC00250412-19],-14.4
4,O=C(O[C@H]1C[C@H]2CC[C@@H](C1)[N+]21CCCC1)C(O)(c1ccccc1)c1ccccc1 + Cc1sc2c(c1C)C(c1ccc(Cl)cc1)=N[C@@H](CC(=O)OC(C)(C)C)c1nnc(C)n1-2 [NCGC00250412-19],17.8
5,CNC(=O)c1cc(Oc2ccc(NC(=O)Nc3ccc(Cl)c(C(F)(F)F)c3)c(F)c2)ccn1 + Cc1sc2c(c1C)C(c1ccc(Cl)cc1)=N[C@@H](CC(=O)OC(C)(C)C)c1nnc(C)n1-2 [NCGC00250412-19],-50.2
6,O=C(CO)N1CCC(c2n[nH]c(-c3ccc(Cl)cc3)c2-c2ccncn2)CC1 + Cc1sc2c(c1C)C(c1ccc(Cl)cc1)=N[C@@H](CC(=O)OC(C)(C)C)c1nnc(C)n1-2 [NCGC00250412-19],-161
7,COC(=O)[C@H](CCCN=C(N)N)NS(=O)(=O)c1ccc(C)cc1 + Cc1sc2c(c1C)C(c1ccc(Cl)cc1)=N[C@@H](CC(=O)OC(C)(C)C)c1nnc(C)n1-2 [NCGC00250412-19],278
8,COc1ccc2c(c1OC)C(=O)O[C@@H]2[C@H]1c2c(cc3c(c2OC)OCO3)CCN1C + Cc1sc2c(c1C)C(c1ccc(Cl)cc1)=N[C@@H](CC(=O)OC(C)(C)C)c1nnc(C)n1-2 [NCGC00250412-19],323
9,Cc1ccc(C(=O)Nc2cccc(C(F)(F)F)c2)cc1-c1ccc2nc(NCCN3CCOCC3)ncc2c1 + Cc1sc2c(c1C)C(c1ccc(Cl)cc1)=N[C@@H](CC(=O)OC(C)(C)C)c1nnc(C)n1-2 [NCGC00250412-19],-140
10,O=C(Nc1ccccc1-c1cn2c(CN3CCNCC3)csc2n1)c1cnc2ccccc2n1 + Cc1sc2c(c1C)C(c1ccc(Cl)cc1)=N[C@@H](CC(=O)OC(C)(C)C)c1nnc(C)n1-2 [NCGC00250412-19],-244
11,CN(C)CCN(C)C(=O)c1ccc(NC(=O)Nc2ccc(-c3nc(N4CCOCC4)c4ccn(CC(F)(F)F)c4n3)cc2)cc1 + Cc1sc2c(c1C)C(c1ccc(Cl)cc1)=N[C@@H](CC(=O)OC(C)(C)C)c1nnc(C)n1-2 [NCGC00250412-19],-272
12,COc1ccc(C(=O)N2CCCC2=O)cc1 + Cc1sc2c(c1C)C(c1ccc(Cl)cc1)=N[C@@H](CC(=O)OC(C)(C)C)c1nnc(C)n1-2 [NCGC00250412-19],-35.2
13,O=C(C1CCCCC1)N1CC(=O)N2CCc3ccccc3C2C1 (stereo not drawn) + Cc1sc2c(c1C)C(c1ccc(Cl)cc1)=N[C@@H](CC(=O)OC(C)(C)C)c1nnc(C)n1-2 [NCGC00250412-19],-130
14,C[C@@H]1CCO[C@H]2Cn3cc(C(=O)NCc4ccc(F)cc4F)c(=O)c(O)c3C(=O)N12 + Cc1sc2c(c1C)C(c1ccc(Cl)cc1)=N[C@@H](CC(=O)OC(C)(C)C)c1nnc(C)n1-2 [NCGC00250412-19],-50.1
15,C[C@]1(O)C[C@@H](c2nc(-c3ccc4ccc(-c5ccccc5)nc4c3)c3c(N)nccn32)C1 + Cc1sc2c(c1C)C(c1ccc(Cl)cc1)=N[C@@H](CC(=O)OC(C)(C)C)c1nnc(C)n1-2 [NCGC00250412-19],-125
16,CC(C)C[C@H](NC(=O)[C@@H](NC(=O)c1cccc(-c2ccccc2)n1)[C@@H](C)O)B(O)O + Cc1sc2c(c1C)C(c1ccc(Cl)cc1)=N[C@@H](CC(=O)OC(C)(C)C)c1nnc(C)n1-2 [NCGC00250412-19],-166
17,CNC(=O)c1cc(Oc2ccc(NC(=O)Nc3cc(C(C)(C)C)nn3-c3ccc4ncccc4c3)c(F)c2)ccn1 + Cc1sc2c(c1C)C(c1ccc(Cl)cc1)=N[C@@H](CC(=O)OC(C)(C)C)c1nnc(C)n1-2 [NCGC00250412-19],-25.3
18,COc1ccc2c(c1)c(CC(=O)O)c(C)n2C(=O)c1ccc(Cl)cc1 + Cc1sc2c(c1C)C(c1ccc(Cl)cc1)=N[C@@H](CC(=O)OC(C)(C)C)c1nnc(C)n1-2 [NCGC00250412-19],-100
19,Nc1nc2ccc(OC(F)(F)F)cc2s1 + Cc1sc2c(c1C)C(c1ccc(Cl)cc1)=N[C@@H](CC(=O)OC(C)(C)C)c1nnc(C)n1-2 [NCGC00250412-19],-97.3

# Looked up above:
# For excess over highest single agent, Nc1nc2ccc(OC(F)(F)F)cc2s1 + Cc1sc2c(c1C)C(c1ccc(Cl)cc1)=N[C@@H](CC(=O)OC(C)(C)C)c1nnc(C)n1-2 [NCGC00250412-19] is listed with -97.3
# For excess over highest single agent, CNC(=O)c1cc(Oc2ccc(NC(=O)Nc3cc(C(C)(C)C)nn3-c3ccc4ncccc4c3)c(F)c2)ccn1 + Cc1sc2c(c1C)C(c1ccc(Cl)cc1)=N[C@@H](CC(=O)OC(C)(C)C)c1nnc(C)n1-2 [NCGC00250412-19] is listed with -25.3

# Remaining list, next part

row,Structure (SMILES),excess over highest single agent
1,CCc1cc2c(cc1N1CCC(N3CCOCC3)CC1)C(C)(C)c1[nH]c3cc(C#N)ccc3c1C2=O + Cc1sc2c(c1C)C(c1ccc(Cl)cc1)=N[C@@H](CC(=O)OC(C)(C)C)c1nnc(C)n1-2 [NCGC00250412-19],-95.1
2,CCOC(=O)O[C@]1(C(=O)OCCl)CC[C@H]2[C@@H]3CCC4=CC(=O)C=C[C@]4(C)[C@H]3[C@@H](O)C[C@@]21C + Cc1sc2c(c1C)C(c1ccc(Cl)cc1)=N[C@@H](CC(=O)OC(C)(C)C)c1nnc(C)n1-2 [NCGC00250412-19],-33.5
3,CCc1c2c(nc3ccc(O)cc13)-c1cc3c(c(=O)n1C2)COC(=O)[C@]3(O)CC + Cc1sc2c(c1C)C(c1ccc(Cl)cc1)=N[C@@H](CC(=O)OC(C)(C)C)c1nnc(C)n1-2 [NCGC00250412-19],-327
4,COc1ccc(/C=C\c2cc(OC)c(OC)c(OC)c2)cc1NC(=O)[C@@H](N)CO + Cc1sc2c(c1C)C(c1ccc(Cl)cc1)=N[C@@H](CC(=O)OC(C)(C)C)c1nnc(C)n1-2 [NCGC00250412-19],-142
5,Clc1cc(Cl)cc(CNc2ncncc2-c2ccc3c(c2)OCO3)c1 + Cc1sc2c(c1C)C(c1ccc(Cl)cc1)=N[C@@H](CC(=O)OC(C)(C)C)c1nnc(C)n1-2 [NCGC00250412-19],-88.1
6,CC(C)C(=O)Oc1ccc(CO)cc1[C@H](CCN(C(C)C)C(C)C)c1ccccc1 + Cc1sc2c(c1C)C(c1ccc(Cl)cc1)=N[C@@H](CC(=O)OC(C)(C)C)c1nnc(C)n1-2 [NCGC00250412-19],-26.9
7,Cc1ccc(NC(=O)c2ccc(CN3CCN(C)CC3)cc2)cc1Nc1nccc(-c2cccnc2)n1 + Cc1sc2c(c1C)C(c1ccc(Cl)cc1)=N[C@@H](CC(=O)OC(C)(C)C)c1nnc(C)n1-2 [NCGC00250412-19],-176
8,CN(C)/[N+]([O-])=N/Oc1cc(ON[N+](=O)N2CCN(C(=O)c3cc(Cc4n[nH]c(=O)c5ccccc45)ccc3F)CC2)c([N+](=O)[O-])cc1[N+](=O)[O-] + Cc1sc2c(c1C)C(c1ccc(Cl)cc1)=N[C@@H](CC(=O)OC(C)(C)C)c1nnc(C)n1-2 [NCGC00250412-19],-94.6
9,Cc1c(C(=O)NN2CCCCC2)nn(-c2ccc(Cl)cc2Cl)c1-c1ccc(Cl)cc1 + Cc1sc2c(c1C)C(c1ccc(Cl)cc1)=N[C@@H](CC(=O)OC(C)(C)C)c1nnc(C)n1-2 [NCGC00250412-19],-88.9
10,N[C@@H](CSC(c1ccccc1)(c1ccccc1)c1ccccc1)C(=O)O + Cc1sc2c(c1C)C(c1ccc(Cl)cc1)=N[C@@H](CC(=O)OC(C)(C)C)c1nnc(C)n1-2 [NCGC00250412-19],-96.2
11,COc1cc([C@@H]2c3cc4c(cc3[C@H](O)[C@H]3COC(=O)[C@@H]23)OCO4)cc(OC)c1OC + Cc1sc2c(c1C)C(c1ccc(Cl)cc1)=N[C@@H](CC(=O)OC(C)(C)C)c1nnc(C)n1-2 [NCGC00250412-19],31.7
12,COc1cc2c(cc1OC)CC(=O)N(CCCN(C)C[C@H]1Cc3cc(OC)c(OC)cc31)CC2 + Cc1sc2c(c1C)C(c1ccc(Cl)cc1)=N[C@@H](CC(=O)OC(C)(C)C)c1nnc(C)n1-2 [NCGC00250412-19],-41.8
13,Clc1ccc(C(Cn2ccnc2)OCc2ccsc2Cl)c(Cl)c1 (stereo not drawn) + Cc1sc2c(c1C)C(c1ccc(Cl)cc1)=N[C@@H](CC(=O)OC(C)(C)C)c1nnc(C)n1-2 [NCGC00250412-19],-4.07
14,COc1cc(C(=O)N2CCC(N3CCN(C)CC3)CC2)ccc1Nc1ncc2c(n1)N(C)c1ccccc1C(=O)N2C + Cc1sc2c(c1C)C(c1ccc(Cl)cc1)=N[C@@H](CC(=O)OC(C)(C)C)c1nnc(C)n1-2 [NCGC00250412-19],239
15,C[C@](N)(Cc1ccc(O)c(O)c1)C(=O)O + Cc1sc2c(c1C)C(c1ccc(Cl)cc1)=N[C@@H](CC(=O)OC(C)(C)C)c1nnc(C)n1-2 [NCGC00250412-19],-50.9
16,COc1cc(NCc2ccc3nc(N)nc(N)c3c2C)cc(OC)c1OC + Cc1sc2c(c1C)C(c1ccc(Cl)cc1)=N[C@@H](CC(=O)OC(C)(C)C)c1nnc(C)n1-2 [NCGC00250412-19],-213
17,CC(C)(OCc1nn(Cc2ccccc2)c2ccccc12)C(=O)O + Cc1sc2c(c1C)C(c1ccc(Cl)cc1)=N[C@@H](CC(=O)OC(C)(C)C)c1nnc(C)n1-2 [NCGC00250412-19],278
18,Cc1ccc(S(=O)(=O)N[C@@H](Cc2ccccc2)C(=O)CCl)cc1 + Cc1sc2c(c1C)C(c1ccc(Cl)cc1)=N[C@@H](CC(=O)OC(C)(C)C)c1nnc(C)n1-2 [NCGC00250412-19],-221
19,CCn1c(C(=O)N(C2CC2)C2CC2)cc2c3c(ncn3C)c(Nc3cc(C)n(C)n3)nc21 + Cc1sc2c(c1C)C(c1ccc(Cl)cc1)=N[C@@H](CC(=O)OC(C)(C)C)c1nnc(C)n1-2 [NCGC00250412-19],76.1
